{"source": "patent US8586707B2", "about": "(The Research Foundation of State University of New York, priority 2008, dated 2013)", "assay": "general procedure: Fmoc solid-phase peptide synthesis; Rink-amide resin; HBTU/NMM; HBTU/HOBt/DIEA", "note": "[ ]: non-standard residue; d: D form. Aib = CC(C)(N)C(=O)O"}
{"substance": "Ac-LTFαHYWAQLβS-NH2", "values": [{"measurement": "cyclisation yield", "setting": "cyclisation step, cyclic, sequence written open", "result": 74, "unit": "%"}]}
{"substance": "Ac-VK(Ac)L[Aib]VK(Ac)L-NH2", "values": [{"measurement": "isolated yield", "setting": "whole synthesis, based on resin substitution", "result": 5, "unit": "%"}]}
{"substance": "Ac-Val-Lys(Pyr)-Leu-Aib-Val-Lys(Ac)-Leu-NH2", "values": [{"measurement": "step yield", "setting": "late stage modification step", "result": 16, "unit": "%"}]}
